From PMC4014986
Results are given in words; binding and its absence hold for the method and conditions named. Some entries that bind do so weakly or less than the wild type.

By UniProt entry, the sequences of proteins in these tests, tags left out. Residues count along the entry.
UniProt Q9NQX4, residues 1-1109: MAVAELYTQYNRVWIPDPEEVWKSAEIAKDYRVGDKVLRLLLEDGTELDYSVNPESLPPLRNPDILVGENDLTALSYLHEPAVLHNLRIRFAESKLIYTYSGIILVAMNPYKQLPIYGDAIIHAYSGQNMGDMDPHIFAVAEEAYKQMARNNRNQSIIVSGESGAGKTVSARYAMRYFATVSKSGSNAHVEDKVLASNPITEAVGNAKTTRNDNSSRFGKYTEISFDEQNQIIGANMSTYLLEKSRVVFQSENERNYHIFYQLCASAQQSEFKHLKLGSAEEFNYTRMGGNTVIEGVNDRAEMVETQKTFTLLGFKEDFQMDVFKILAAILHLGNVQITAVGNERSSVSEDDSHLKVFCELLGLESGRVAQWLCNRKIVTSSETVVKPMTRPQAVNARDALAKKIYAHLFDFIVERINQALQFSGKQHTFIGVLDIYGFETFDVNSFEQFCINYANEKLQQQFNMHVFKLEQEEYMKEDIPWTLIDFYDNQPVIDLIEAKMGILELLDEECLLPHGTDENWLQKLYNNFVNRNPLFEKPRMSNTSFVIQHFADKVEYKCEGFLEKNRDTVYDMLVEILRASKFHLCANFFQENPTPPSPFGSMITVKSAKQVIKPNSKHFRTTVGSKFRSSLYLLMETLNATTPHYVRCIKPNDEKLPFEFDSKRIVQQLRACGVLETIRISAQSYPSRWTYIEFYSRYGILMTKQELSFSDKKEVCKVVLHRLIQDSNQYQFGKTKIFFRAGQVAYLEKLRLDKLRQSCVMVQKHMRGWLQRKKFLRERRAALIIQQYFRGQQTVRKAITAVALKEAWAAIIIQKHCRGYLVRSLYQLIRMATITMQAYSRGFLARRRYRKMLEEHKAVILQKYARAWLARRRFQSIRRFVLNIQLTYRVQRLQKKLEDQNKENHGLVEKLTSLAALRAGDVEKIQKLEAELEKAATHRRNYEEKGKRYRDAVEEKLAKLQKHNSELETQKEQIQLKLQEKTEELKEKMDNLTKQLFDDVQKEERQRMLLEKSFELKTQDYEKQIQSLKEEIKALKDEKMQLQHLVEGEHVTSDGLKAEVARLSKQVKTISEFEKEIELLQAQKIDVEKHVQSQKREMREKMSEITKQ

Biological target: Myo5c-HMM with a SNAP-tag and a FLAG tag (Myo5c-HMM-SNAP-FLAG) (human) (UniProt Q9NQX4)
Assay: sequential affinity co-purification (Ni-NTA agarose, then anti-FLAG column); the two differently tagged heavy chains co-expressed with calmodulin in Sf9 cells; Ni-NTA eluted with 250 mM imidazole, Q Sepharose, dialysis, anti-FLAG column eluted with FLAG peptide

With “Myo5c-HMM with six histidines (Myo5c-HMM-6x-His) (from UniProt Q9NQX4 1-1109) (domain or fragment)” the binding was “binds”.
